Laboratory results taken from PubChem BioAssay AID256 (DTP/NCI, 2004).
The list shows only some results of the screen, not a fair sample: it gathers tests that were run many times, whatever their T/C, doses with no T/C, and many T/C values between a quarter and a half above the control. Other doses and runs of a compound stand elsewhere. T/C: endpoint of the treated group in % of that of the vehicle group. Some doses have a count of surviving animals in place of a T/C: the source files T/C as zero there, which appears to mark a toxic dose or a test without result, not a measured value. Some survivor counts are full or nearly so, which does not show that the dose was tolerated: the source hardly ever lists a survival T/C far under the control, and the zero likely stands for such cases as well. Survivors were counted at the toxicity check, usually on the fifth day, unless a day is given; later deaths do not show. Schedules are NCI's codes, taken here to give the interval after Q, in days (D) or hours (H), and the number of doses after X. Where survival is the endpoint, this PubChem deposit counts one and a half times the control or more as active, and values a quarter to a half above the control carry no call in these data; other NCI protocols may use other cut-offs.

System: CD2F1 mice, L1210 leukemia ip, survival T/C
Test: NCI In Vivo Anticancer Drug Screen. Data for tumor model L1210 Leukemia (intraperitoneal) in CD2F1 (CDF1) mice
Details: T/C endpoint: mean survival time, higher T/C = longer survival
Procedure, shortened: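 Antitumor effect is scored in animals hosting a serially transplanted tumor. Values compare compound-dosed animals against vehicle-only controls as a simple quotient.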

[1] = dose: 100.0 mg/kg/injection, schedule: Q01DX009 (ip), vehicle: saline with Tween-80
[2] = dose: 200.0 mg/kg/injection, schedule: Q04DX003 (ip), vehicle: saline with Tween-80
[3] = dose: 400.0 mg/kg/injection, schedule: Q04DX003 (ip), vehicle: saline with Tween-80
[4] = dose: 400.0 mg/kg/injection, schedule: Q01DX001 (ip), vehicle: saline with Tween-80

With `O=C(O)C(Br)C(Br)C(=O)O` (stereo not given) the survivor count (dose: 400.0 mg/kg/injection, schedule: Q01DX001 (ip), vehicle: carboxymethylcellulose (CMC)) was 2 of 4.

`CC(C)(CNC1=NCCO1)NC1=NCCO1` was tested, and the survivor count (dose: 400.0 mg/kg/injection, schedule: Q04DX003 (ip), vehicle: saline) was 0 of 6.

For `CCCCOP(=O)(OCCCC)OC(=C(Cl)Cl)P(=O)(OCCCC)OCCCC`, the survivor count (dose: 400.0 mg/kg/injection, schedule: Q04DX002 (ip), vehicle: saline) was 2 of 3.

With `C1CC1C(=NN=C(C1CC1)C1CC1)C1CC1` the survivor count [1] was 5 of 6, the survivor count [2] was 5 of 6 and the survivor count [3] was 6 of 6.

With `CC(=O)[O-].c1cc[c]([Sb+]([c]2ccccc2)([c]2ccccc2)[c]2ccccc2)cc1` the survivor count (dose: 75.0 mg/kg/injection, schedule: Q01DX001 (ip), vehicle: saline) was 0 of 6, the survivor count (dose: 150.0 mg/kg/injection, schedule: Q01DX001 (ip), vehicle: saline) was 0 of 6 and the survivor count (dose: 300.0 mg/kg/injection, schedule: Q01DX001 (ip), vehicle: saline) was 0 of 6.

In the case of `CCCCCCCCCCCCCCCCCCOc1ccc(Cl)cc1`, the survivor count (dose: 400.0 mg/kg/injection, schedule: Q04DX002 (ip), vehicle: saline with Tween-80) is reported as 3 of 3.

In the case of `COC(=O)c1c2ccccc2[n+](C)c2ccccc12`, the survivor count (dose: 400.0 mg/kg/injection, schedule: Q01DX001 (ip), vehicle: saline) is reported as 2 of 6.

`O=C1C=Cc2ccccc2C1=O` was tested, and the survivor count (dose: 5.0 mg/kg/injection, schedule: Q01DX009 (ip), vehicle: saline with Tween-80) was 2 of 6 and the survivor count (dose: 10.0 mg/kg/injection, schedule: Q01DX009 (ip), vehicle: saline with Tween-80) was 0 of 6.

`O=P(NCCCO)(OCc1ccccc1)N(CCCl)CCCl` (stereo not given) was tested, and the T/C (dose: 490.0 mg/kg/injection, schedule: Q01DX001 (ip), vehicle: other) was 128 % of control, the T/C (dose: 500.0 mg/kg/injection, schedule: Q01DX001 (ip), vehicle: DMSO) was 134 % of control and the T/C (dose: 700.0 mg/kg/injection, schedule: Q01DX001 (ip), vehicle: other) was 147 % of control. The survivor count (dose: 1428.0 mg/kg/injection, schedule: Q01DX001 (ip), vehicle: other) was 2 of 6.

With `COc1ccc(C(=O)NN)cc1` the survivor count [2] was 3 of 6 and the survivor count [3] was 4 of 6.

In the case of `CC12CC[C]([Hg][I])(CC1)C2(C)C`, the survivor count (dose: 50.0 mg/kg/injection, schedule: Q01DX009 (ip), vehicle: saline with Tween-80) is reported as 3 of 3, the survivor count [1] is reported as 0 of 3 and the survivor count (dose: 200.0 mg/kg/injection, schedule: Q01DX009 (ip), vehicle: saline with Tween-80) is reported as 0 of 3.

`CCCCCCCCCCCC(=O)[O][Pb]([CH2]C)([CH2]C)[CH2]C` was tested, and the survivor count (dose: 12.5 mg/kg/injection, schedule: Q01DX009 (ip), vehicle: saline with Tween-80) was 1 of 6.

With `CCCCP(=O)(O)O` the survivor count [4] was 1 of 6.

In the case of `ClCCCN1CCCCC1CCl` (stereo not given), the T/C (dose: 12.5 mg/kg/injection, schedule: Q04DX003 (ip), vehicle: saline) is reported as 127 % of control and the survivor count (dose: 50.0 mg/kg/injection, schedule: Q04DX003 (ip), vehicle: saline) is reported as 6 of 6.

For `Cn1c(C(O)c2cccnc2)c(CN2CCCCC2)c2ccccc21` (stereo not given), the survivor count [4] was 1 of 3.

With `CN1CCN(CCSSCCN2CCN(C)CC2)CC1` the survivor count [3] was 3 of 6.

With `Cn1cnc([N+](=O)[O-])c1Sc1nc(N)nc2nc[nH]c12` the T/C (dose: 5.0 mg/kg/injection, schedule: Q01DX007 (ip), vehicle: Klucel (hydroxypropylcellulose) (HPC)) was 136 % of control, the T/C (dose: 5.0 mg/kg/injection, schedule: Q01DX009 (ip), vehicle: Klucel (hydroxypropylcellulose) (HPC)) was 141 % of control and the T/C (dose: 5.0 mg/kg/injection, schedule: Q04DX003 (ip), vehicle: Klucel (hydroxypropylcellulose) (HPC)) was 149 % of control. For the same compound, the T/C (dose: 10.0 mg/kg/injection, schedule: Q01DX009 (ip), vehicle: Klucel (hydroxypropylcellulose) (HPC)) was 141 % of control, the T/C (dose: 10.0 mg/kg/injection, schedule: Q04DX003 (ip), vehicle: Klucel (hydroxypropylcellulose) (HPC)) was 143 % of control and the T/C (dose: 20.0 mg/kg/injection, schedule: Q01DX009 (ip), vehicle: Klucel (hydroxypropylcellulose) (HPC)) was 131 % of control. For the same compound, the T/C (dose: 20.0 mg/kg/injection, schedule: Q04DX003 (ip), vehicle: Klucel (hydroxypropylcellulose) (HPC)) was 149 % of control.
